The source of these data is US20180371460.

In the data set the target is Human serum albumin (HSA) in human plasma, denatured (Homo sapiens) (UniProt P02768). Nature of the data set: pull-down. Conditions: selective pull-down from plasma; Tween 80 or Empigen BB with DTT; blank beads control; protein in an extract; single-stranded DNA.

The exact form of at least one protein or probe is not confirmed. At least one result comes from cells or an extract, where the contact may be indirect.

Consider “GCGCATACCAGCTTATTCAATTCGGATAGACAACATGGGGAAGAACAGTGTCTAGTCGTGGGTTGCTCTGTAAGATAGTAAGTGCAATCTCGGC [36]”, for which the binding result is “binds”.
